Laboratory results: PubChem BioAssay AID1224830 (NIAID, 2016)

Purpose: 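Host factors that control LPS-induced TNF expression in human macrophages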 (primary screen)
Cells: human THP-1 monocytic leukaemia cells, TNF dual-luciferase reporter clone, PMA-differentiated to macrophage-like cells
Knock-down reagent: siRNA pool against human genes, 50 nM
Timing: LPS for 4 h, given about 3 days after siRNA transfection
Challenge: bacterial LPS (TLR4 ligand), 10 ng/ml
Measured: 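TNF firefly reporter luminescence divided by renilla, normalised to the plate median, then turned into a robust z-score for each replicate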
Direction: TNF reporter robust z-score: higher = stronger TNF reporter response to LPS
Active means: 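a well is active when its z-score exceeds 2.8 or falls below -1.5; control wells carry no call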
This is an unselected part of about 18,000 reagents tested. Of all reagents, about 2,900 (16%) got an active call. 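Calls are made per well; low scores hint the gene aids the LPS response, high scores that it dampens it.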 Repeated entries: four replicate wells of each siRNA pool.

| Target gene | PubChem SID | TNF reporter robust z-score | Call |
| --- | --- | --- | --- |
| TVP23B | SID315456418 | -0.27 | inactive |
| TVP23B | SID315456418 | 0.24 | inactive |
| TVP23B | SID315456418 | -0.74 | inactive |
| TVP23B | SID315456418 | -0.65 | inactive |
| NOTCH2 | SID315450280 | -0.16 | inactive |
| NOTCH2 | SID315450280 | 0.32 | inactive |
| NOTCH2 | SID315450280 | 0.12 | inactive |
| NOTCH2 | SID315450280 | 1.41 | inactive |
| LRRC39 | SID315461756 | -1.02 | inactive |
| LRRC39 | SID315461756 | -0.74 | inactive |
| LRRC39 | SID315461756 | -1.08 | inactive |
| LRRC39 | SID315461756 | -1.62 | active |
| MRPL9 | SID315459066 | -0.28 | inactive |
| MRPL9 | SID315459066 | -0.18 | inactive |
| MRPL9 | SID315459066 | -0.94 | inactive |
| MRPL9 | SID315459066 | -0.19 | inactive |
| ACTN1 | SID315447168 | -0.43 | inactive |
| ACTN1 | SID315447168 | 0.01 | inactive |
| ACTN1 | SID315447168 | -0.46 | inactive |
| ACTN1 | SID315447168 | 0.04 | inactive |
| PPP3CB | SID315450765 | 0.69 | inactive |
| PPP3CB | SID315450765 | 1.26 | inactive |
| PPP3CB | SID315450765 | 0.5 | inactive |
| TMPRSS5 | SID315459837 | 1.1 | inactive |
| TMPRSS5 | SID315459837 | 0.31 | inactive |
| TMPRSS5 | SID315459837 | 2.19 | inactive |
| TMPRSS5 | SID315459837 | 0.5 | inactive |
| OBSCN | SID315460158 | 0.76 | inactive |
| OBSCN | SID315460158 | 0.94 | inactive |
| OBSCN | SID315460158 | 1.01 | inactive |
| OBSCN | SID315460158 | 0.87 | inactive |
| WDR37 | SID315454846 | -1.33 | inactive |
| WDR37 | SID315454846 | -1.59 | active |
| WDR37 | SID315454846 | -0.69 | inactive |
| WDR37 | SID315454846 | -0.95 | inactive |
| PPCDC | SID315458712 | 1.24 | inactive |
| PPCDC | SID315458712 | 1.11 | inactive |
| PPCDC | SID315458712 | 0.91 | inactive |
| PPCDC | SID315458712 | 1.14 | inactive |
| PCOLCE2 | SID315455820 | -0.68 | inactive |
| PCOLCE2 | SID315455820 | -0.83 | inactive |
| PCOLCE2 | SID315455820 | -0.14 | inactive |
| PCOLCE2 | SID315455820 | -0.05 | inactive |
| EHF | SID315455770 | 0.67 | inactive |
| EHF | SID315455770 | 0.79 | inactive |
| EHF | SID315455770 | 0.63 | inactive |

6 neighbouring reagents already listed:
| Target gene | PubChem SID | TNF reporter robust z-score | Call |
| --- | --- | --- | --- |
| ACTN1 | SID315447168 | -0.43 | inactive |
| ACTN1 | SID315447168 | 0.01 | inactive |
| ACTN1 | SID315447168 | -0.46 | inactive |
| ACTN1 | SID315447168 | 0.04 | inactive |
| PPP3CB | SID315450765 | 0.69 | inactive |
| PPP3CB | SID315450765 | 1.26 | inactive |
